For one assay, the target named is GST‐HA‐PP1A (UniProt P62136). Description: pull-down; GST-HA fusion and FLAG-tagged partner co-transfected in HEK293 cells, glutathione beads, Western blot. (In general: A western blot detects proteins with antibodies after separation by electrophoresis.)
Another assay deals with GST‐HA‐Keap1 (UniProt Q14145). The description is as above.
Assay [1] concerns the target serine/threonine‐specific protein phosphatase (PP1A) (human (in Huh7 cells; endogenous or transfected not stated)) (UniProt P62136). Description: co-IP; cell lysates with antibodies overnight at 4°C, protein A/G magnetic beads 6 h at 4°C, washed with PBST, Western blot; Keap1-Nrf2 co-IP with or without overexpressed PP1A or PP1A phosphatase-site mutant.

Protein sequences, listed by entry. Tags and fused reporters are not part of them.
UniProt P62136: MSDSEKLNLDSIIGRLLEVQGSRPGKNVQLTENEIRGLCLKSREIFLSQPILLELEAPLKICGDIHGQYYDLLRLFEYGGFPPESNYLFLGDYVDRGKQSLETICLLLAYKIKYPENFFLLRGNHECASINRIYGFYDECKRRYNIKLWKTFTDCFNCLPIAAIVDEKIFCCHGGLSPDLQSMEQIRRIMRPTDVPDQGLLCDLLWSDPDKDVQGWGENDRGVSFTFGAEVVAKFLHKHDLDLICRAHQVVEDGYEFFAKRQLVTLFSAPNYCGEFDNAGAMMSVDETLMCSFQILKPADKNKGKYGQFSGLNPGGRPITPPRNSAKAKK
UniProt Q14145: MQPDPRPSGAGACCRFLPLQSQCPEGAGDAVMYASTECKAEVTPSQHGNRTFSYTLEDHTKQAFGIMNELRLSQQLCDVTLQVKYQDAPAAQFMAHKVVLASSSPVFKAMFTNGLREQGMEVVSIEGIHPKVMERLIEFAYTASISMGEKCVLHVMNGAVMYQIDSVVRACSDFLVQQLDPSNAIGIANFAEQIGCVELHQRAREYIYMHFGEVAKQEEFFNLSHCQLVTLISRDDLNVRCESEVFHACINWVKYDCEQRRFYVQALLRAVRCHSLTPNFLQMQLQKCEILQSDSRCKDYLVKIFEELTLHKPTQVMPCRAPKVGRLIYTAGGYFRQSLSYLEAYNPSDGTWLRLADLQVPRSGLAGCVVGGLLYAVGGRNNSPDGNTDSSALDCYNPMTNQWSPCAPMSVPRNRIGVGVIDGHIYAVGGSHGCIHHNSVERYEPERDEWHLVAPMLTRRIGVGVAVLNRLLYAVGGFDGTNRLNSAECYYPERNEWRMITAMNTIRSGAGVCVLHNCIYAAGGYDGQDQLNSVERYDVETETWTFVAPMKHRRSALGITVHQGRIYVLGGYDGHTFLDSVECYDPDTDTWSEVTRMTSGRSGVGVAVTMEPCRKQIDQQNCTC

The text below walks through data of paper PMC12279197.

These are yes or no findings as the source states them, for the method shown. Binding seen in cells or lysates may run through a third protein. Some entries that bind do so weakly or less than the wild type.

For FLAG‐Keap1 (from UniProt Q14145 1-624), the binding entry with GST‐HA‐PP1A is “binds”. Turning to “FLAG‐PP1A (from UniProt P62136 1-330) (enzyme)”, the binding entry with GST‐HA‐Keap1 was “binds”. For the substance “Kelch‐like ECH‐associated protein (Keap1) (from UniProt Q14145 1-624)”, the binding result in assay [1] was “binds”.
